PubChem BioAssay AID743454 – Peter MacCallum Cancer Centre – 2014
The deposit covers about 18,000 reagents; this is a part drawn at random. Over the whole deposit, 450 (2.5%) were called active. 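Single biological run; no consistent viability z cut-off exists, so the class columns, not z-scores, define the calls.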 No sequences are given here.

Screen: 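Search for knock-downs that restore vorinostat killing in resistant colon cancer cells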 (primary screen)
Cell system: human HCT116-VR colon cancer cells, selected for vorinostat resistance
Knock-down reagent: siRNA pool against human genes, 40 nM siRNA pool
Time to read-out: vorinostat for 24 h, read-out about 72 h after transfection
Conditions: vorinostat at 2.5 µM final
Detection: 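Cell viability by CellTiter-Fluor and caspase 3/7 activity by luminescence, each scaled to mock wells per plate, duplicates averaged, then robust z-scored over all plates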
Reading the numbers: viability robust z-score: higher = more viable cells than screen typical; caspase robust z-score: higher = more caspase 3/7 activity than screen typical
Hit rule: 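a knock-down is a hit when classed RV1 or RV2 for lowered viability, or CA1 or CA2 for caspase activation; those lethal without drug were dropped; hits were retested singly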

What did the screen give for MSH5 (mutS homolog 5)?
viability hit class: no change; caspase hit class: no change; viability robust z-score: 0.84; caspase robust z-score: 1.43; activity call: inactive

How did the screen score SLC6A9?
viability hit class: no change; caspase hit class: no change; viability robust z-score: -0.26; caspase robust z-score: 1.31; activity call: inactive

With ZNF680 (zinc finger protein 680), what does the deposit list?
viability hit class: no change; caspase hit class: no change; viability robust z-score: -0.25; caspase robust z-score: 2.74; activity call: inactive

Which result is listed for BZW1 (basic leucine zipper and W2 domains 1)?
viability hit class: no change; caspase hit class: no change; viability robust z-score: 0.88; caspase robust z-score: -0.78; activity call: inactive

What did the screen give for SWAP70 (switching B cell complex subunit SWAP70)?
viability hit class: no change; caspase hit class: no change; viability robust z-score: -1.19; caspase robust z-score: 4.97; activity call: inactive

What is on record for TLR9 (toll like receptor 9)?
viability hit class: no change; caspase hit class: no change; viability robust z-score: -0.66; caspase robust z-score: -0.96; activity call: inactive

What is on record for PECR (peroxisomal trans-2-enoyl-CoA reductase)?
viability hit class: no change; caspase hit class: no change; viability robust z-score: -0.18; caspase robust z-score: -0.43; activity call: inactive

With SAFB2 (scaffold attachment factor B2), how do the results read?
viability hit class: no change; caspase hit class: no change; viability robust z-score: -0.58; caspase robust z-score: 0.93; activity call: inactive

For P3H2 (prolyl 3-hydroxylase 2), what was measured?
viability hit class: no change; caspase hit class: no change; viability robust z-score: -0.47; caspase robust z-score: -0.32; activity call: inactive

With TNPO1 (transportin 1), what was measured?
viability hit class: no change; caspase hit class: no change; viability robust z-score: -1.38; caspase robust z-score: 2.73; activity call: inactive

For ARB2A (ARB2 cotranscriptional regulator A), how do the results read?
viability hit class: no change; caspase hit class: no change; viability robust z-score: -0.28; caspase robust z-score: 1.18; activity call: inactive

Which result is listed for EIF3A (eukaryotic translation initiation factor 3 subunit A)?
viability hit class: no change; caspase hit class: no change; viability robust z-score: -3; caspase robust z-score: -1.09; activity call: inactive

Which result is listed for ELOC (elongin C)?
viability hit class: no change; caspase hit class: no change; viability robust z-score: 0.9; caspase robust z-score: 1.19; activity call: inactive

What is on record for ACOT2 (acyl-CoA thioesterase 2)?
viability hit class: no change; caspase hit class: no change; viability robust z-score: -0.32; caspase robust z-score: 2.21; activity call: inactive

Which result is listed for DAB1 (DAB adaptor protein 1)?
viability hit class: no change; caspase hit class: no change; viability robust z-score: 0; caspase robust z-score: -0.14; activity call: inactive

Which result is listed for ERLEC1 (endoplasmic reticulum lectin 1)?
viability hit class: no change; caspase hit class: no change; viability robust z-score: -1.44; caspase robust z-score: 0.4; activity call: inactive

For CYTH3 (cytohesin 3), what does the deposit list?
viability hit class: no change; caspase hit class: no change; viability robust z-score: 0; caspase robust z-score: 0.36; activity call: inactive

What did the screen give for STK11IP (serine/threonine kinase 11 interacting protein)?
viability hit class: no change; caspase hit class: no change; viability robust z-score: -1.28; caspase robust z-score: -0.58; activity call: inactive

What did the screen give for SPRED2 (sprouty related EVH1 domain containing 2)?
viability hit class: no change; caspase hit class: no change; viability robust z-score: 0.75; caspase robust z-score: 1.81; activity call: inactive

What did the screen give for EPGN (epithelial mitogen)?
viability hit class: no change; caspase hit class: no change; viability robust z-score: -1.24; caspase robust z-score: -0.52; activity call: inactive

What did the screen give for OR1L6 (olfactory receptor family 1 subfamily L member 6)?
viability hit class: no change; caspase hit class: no change; viability robust z-score: -1.21; caspase robust z-score: 0.42; activity call: inactive

Reprinted from above, 2 entries:
ACOT2 (acyl-CoA thioesterase 2) → viability hit class = no change; caspase hit class = no change; viability robust z-score = -0.32; caspase robust z-score = 2.21; activity call = inactive
DAB1 (DAB adaptor protein 1) → viability hit class = no change; caspase hit class = no change; viability robust z-score = 0; caspase robust z-score = -0.14; activity call = inactive
